Values joined by “and” are separate entries in the source; they are usually repeats but may differ in a detail not shown here. Equal entries are not always repeated.
Tests used:
Assay type in all cases: binding
Conditions in all cases: cooperative if > 4
[1] = system: human telomeric sequence 24TTG; experiment: Native electrospray mass spectrometry, 24TTG
Experimental: (§1) These parameters ensured a good signal intensity without disrupting noncovalent complexes, which was verified using d[G4T4G4]2 as a control. Oligonucleotides were purchased lyophilized, and RP-cartridge purified from Eurogentec (Kanaka Eurogentec, Seraing, Belgium), then buffer exchanged with ammonium acetate (5 M; Sigma-Aldrich, Saint-Quentin-Fallavier, France) using Amicon Ultra (3 K cut-off; Merck Millipore, Cork, Ireland). Sample solutions were prepared by diluting the proper volume of oligonucleotide stock solutions to reach 10 µM of DNA and 20 µM of ligand, in 100 mM ammonium acetate. The solutions were incubated for 16 h at 4 °C before analysis. Kd were calculated as already described.

ds26 = experiment: Native electrospray mass spectrometry, duplex control ds26
Experimental: as §1

BCL-2 = experiment: Native electrospray mass spectrometry, BCL-2
Experimental: as §1

c-MYC = experiment: Native electrospray mass spectrometry, c-MYC
Experimental: as §1

CN(C)CCCNCc1ccc(-c2cc(-c3ccc(CNCCCN(C)C)cc3)c3cc(-c4ccccc4)ccc3n2)cc1 [Compound 13a, 2,4-bis{4-[(3-dimethylaminopropyl)aminomethyl]phenyl}-6-phenylquinoline]
Kd1/Kd2 24TTG [1]: 0.5
Kd1/Kd2 ds26 (ds26): 0.2
Kd1/Kd2 BCL-2 (BCL-2): 2.1
Kd1/Kd2 c-MYC (c-MYC): 0.1

CN(C)CCCNCc1ccc(-c2nc(-c3ccc(CNCCCN(C)C)cc3)c3cc(-c4ccccc4)ccc3n2)cc1 [Compound 12b, 2,4-bis{4-[(3-dimethylaminopropyl)aminomethyl]phenyl}-6-phenylquinazoline]
Kd1/Kd2 24TTG [1]: > 4 and 6.3
Kd1/Kd2 ds26 (ds26): 0.1
Kd1/Kd2 BCL-2 (BCL-2): 2.0
Kd1/Kd2 c-MYC (c-MYC): 0.1

CN1CCN(CCCCNCc2ccc(-c3cc(-c4ccc(CNCCCCN5CCN(C)CC5)cc4)c4cc(-c5ccccc5)ccc4n3)cc2)CC1 [Compound 13d, 2,4-bis{4-[(4-(4-methylpiperazin-1-yl)butyl)aminomethyl]phenyl}-6-phenylquinoline]
Kd1/Kd2 24TTG [1]: 0.4
Kd1/Kd2 ds26 (ds26): 0.2
Kd1/Kd2 BCL-2 (BCL-2): 2.6
Kd1/Kd2 c-MYC (c-MYC): 0.1

CN1CCN(CCCCNCc2ccc(-c3nc(-c4ccc(CNCCCCN5CCN(C)CC5)cc4)c4cc(-c5ccccc5)ccc4n3)cc2)CC1 [Compound 12e, 2,4-bis{4-[(4-(4-methylpiperazin-1-yl)butyl)aminomethyl]phenyl}-6-phenylquinazoline]
Kd1/Kd2 24TTG [1]: > 4 and 7.2
Kd1/Kd2 ds26 (ds26): 0.1
Kd1/Kd2 BCL-2 (BCL-2): 2.8
Kd1/Kd2 c-MYC (c-MYC): 0.1
